No constants are given. Whether binding was seen depends on the method and setting. For some assays here: In cells and extracts the contact can be indirect. Some entries that bind do so weakly or less than the wild type.
B1: Poly(A)polymerase, PAP (purified) (protein, UniProt P0ABF1 11-465)
chain: KVLSREESEAEQAVARPQVTVIPREQHAISRKDISENALKVMYRLNKAGYEAWLVGGGVRDLLLGKKPKDFDVTTNATPEQVRKLFRNCRLVGRRFRLAHVMFGPEIIEVATFRGHHEGNVSDRTTSQRGQNGMLLRDNIFGSIEEDAQRRDFTINSLYYSVADFTVRDYVGGMKDLKDGVIRLIGNPETRYREDPVRMLRAVRFAAKLGMRISPETAEPIPRLATLLNDIPPARLFEESLKLLQAGYGYETYKLLCEYHLFQPLFPTITRYFTENGDSPMERIIEQVLKNTDTRIHNDMRVNPAFLFAAMFWYPLLETAQKIAQESGLTYHDAFALAMNDVLDEACRSLAIPKRLTTLTRDIWQLQLRMSRRQGKRAWKLLEHPKFRAAYDLLALRAEVERNAELQRLVKWWGEFQVSAPPDQKGMLNELDEEPSPRRRTRRPRKRAPRREGTA
B2: GlmS (protein, UniProt P17169 1-609)
chain: MCGIVGAIAQRDVAEILLEGLRRLEYRGYDSAGLAVVDAEGHMTRLRRLGKVQMLAQAAEEHPLHGGTGIAHTRWATHGEPSEVNAHPHVSEHIVVVHNGIIENHEPLREELKARGYTFVSETDTEVIAHLVNWELKQGGTLREAVLRAIPQLRGAYGTVIMDSRHPDTLLAARSGSPLVIGLGMGENFIASDQLALLPVTRRFIFLEEGDIAEITRRSVNIFDKTGAEVKRQDIESNLQYDAGDKGIYRHYMQKEIYEQPNAIKNTLTGRISHGQVDLSELGPNADELLSKVEHIQILACGTSYNSGMVSRYWFESLAGIPCDVEIASEFRYRKSAVRRNSLMITLSQSGETADTLAGLRLSKELGYLGSLAICNVPGSSLVRESDLALMTNAGTEIGVASTKAFTTQLTVLLMLVAKLSRLKGLDASIEHDIVHGLQALPSRIEQMLSQDKRIEALAEDFSDKHHALFLGRGDQYPIALEGALKLKEISYIHAEAYAAGELKHGPLALIDADMPVIVVAPNNELLEKLKSNIEEVRARGGQLYVFADQDAGFVSSDNMHIIEMPHVEEVIAPIFYTVPLQLLAYHVALIKGTDVDQPRNLAKSVTVE

The chains behind the UniProt entries cited, without tags or fusion partners.
UniProt P0A6X3: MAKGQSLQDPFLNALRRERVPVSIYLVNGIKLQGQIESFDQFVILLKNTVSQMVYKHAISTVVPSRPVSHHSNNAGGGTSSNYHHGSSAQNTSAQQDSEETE

Tests used:
non-tagged Hfq (E. coli) = non-tagged Hfq (E. coli) (UniProt P0A6X3); test: MST; non-tagged Hfq with PAP; data not shown; both purified
[1] = biological target: HfqH6 (His6-tagged Hfq expressed from pHfqH6) (E. coli) (UniProt P0A6X3); test: cross-linking; in vivo, 0.25 mM DSP in PBS, 1 h at 37 °C, late exponential phase; HfqH6 complexes enriched on Ni-Agarose; with or without 50 mM DTT; SDS-PAGE, 24 gel slices analysed by mass spectrometry; no RNase A treatment

Binder | binding (non-tagged Hfq (E. coli)) | binding [1]
B1 | binds | 
B2 |  | no binding
